In publication PMC3605159, “Twist1 Controls a Cell-Specification Switch Governing Cell Fate Decisions within the Cardiac Neural Crest” (PLoS Genetics, 2013):
These are yes or no findings as the source states them, for the method shown. Binding seen in cells or lysates may run through a third protein. Some entries that bind do so weakly or less than the wild type.

Chains of the proteins cited; added tags and fusions are not shown.
UniProt O35690: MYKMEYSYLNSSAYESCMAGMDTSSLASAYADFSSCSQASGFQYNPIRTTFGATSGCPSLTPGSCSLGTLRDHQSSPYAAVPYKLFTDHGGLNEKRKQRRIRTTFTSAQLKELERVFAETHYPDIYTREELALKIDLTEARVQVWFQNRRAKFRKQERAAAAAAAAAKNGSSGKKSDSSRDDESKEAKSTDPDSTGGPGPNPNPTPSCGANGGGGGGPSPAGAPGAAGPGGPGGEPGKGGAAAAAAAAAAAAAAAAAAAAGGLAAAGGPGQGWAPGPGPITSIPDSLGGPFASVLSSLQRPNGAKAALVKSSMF

T1: Ascl1 (UniProt Q02067)
T1 sequence: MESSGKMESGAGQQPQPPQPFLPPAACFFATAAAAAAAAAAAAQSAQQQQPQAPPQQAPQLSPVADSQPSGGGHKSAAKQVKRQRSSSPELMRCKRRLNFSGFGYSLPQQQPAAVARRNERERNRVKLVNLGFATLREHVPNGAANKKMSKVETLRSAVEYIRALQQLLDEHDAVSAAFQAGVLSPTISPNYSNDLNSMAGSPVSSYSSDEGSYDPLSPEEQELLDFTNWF

T2: Sox10 (rat, UniProt O55170 1-466)
T2 sequence (looked up): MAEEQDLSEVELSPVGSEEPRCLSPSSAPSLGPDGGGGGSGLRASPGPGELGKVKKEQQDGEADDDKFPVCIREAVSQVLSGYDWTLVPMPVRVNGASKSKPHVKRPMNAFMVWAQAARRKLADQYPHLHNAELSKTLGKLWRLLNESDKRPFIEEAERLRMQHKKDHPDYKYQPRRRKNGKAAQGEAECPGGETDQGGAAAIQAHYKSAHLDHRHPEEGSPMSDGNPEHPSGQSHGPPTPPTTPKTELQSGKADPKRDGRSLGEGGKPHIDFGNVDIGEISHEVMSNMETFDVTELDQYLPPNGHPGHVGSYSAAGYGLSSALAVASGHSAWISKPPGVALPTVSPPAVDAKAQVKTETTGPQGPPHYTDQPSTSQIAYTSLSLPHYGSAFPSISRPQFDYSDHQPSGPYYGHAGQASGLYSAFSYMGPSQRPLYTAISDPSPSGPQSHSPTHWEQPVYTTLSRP


Tests used:
Ascl1 = target: T1, Ascl1; assay: co-IP; data not shown
Twist1 = Twist1 (UniProt P26687); assay: co-IP; unpublished results; Twist1 homodimerization
Sox10 = target: T2, Sox10; assay: co-IP; HEK 293 cells, epitope-tagged proteins, α-Myc and α-Flag; n = 3; densitometry with BioRad Quantity One
Phox2b = Phox2b (UniProt O35690); assay: as above
Twist1 S192P = Twist1 S192P (UniProt P26687); assay: co-IP; unpublished results; Twist1 homodimerization

Row | binding (Ascl1) | binding (Twist1) | binding (Sox10) | binding (Phox2b) | binding (Twist1 S192P) | Binder
1 | binds | binds | binds | binds |  | Twist1 (natural protein, UniProt P26687 1-206, looked up) MMQDVSSSPVSPADDSLSNSEEEPDRQQPASGKRGARKRRSSRRSAGGSAGPGGATGGGIGGGDEPGSPAQGKRGKKSAGGGGGGGAGGGGGGGGGSSSGGGSPQSYEELQTQRVMANVRERQRTQSLNEAFAALRKIIPTLPSDKLSKIQTLKLAARYIDFLYQVLQSDELDSKMASCSYVAHERLSYAFSVWRMEGAWSMSASH
2 |  |  |  | binds |  | Twist1 T125;S127A (protein, UniProt P26687 1-206) MMQDVSSSPVSPADDSLSNSEEEPDRQQPASGKRGARKRRSSRRSAGGSAGPGGATGGGIGGGDEPGSPAQGKRGKKSAGGGGGGGAGGGGGGGGGSSSGGGSPQSYEELQTQRVMANVRERQRAQALNEAFAALRKIIPTLPSDKLSKIQTLKLAARYIDFLYQVLQSDELDSKMASCSYVAHERLSYAFSVWRMEGAWSMSASH
3 |  |  |  | binds | binds | Twist1 S192P (natural protein, UniProt P26687 1-206, looked up) MMQDVSSSPVSPADDSLSNSEEEPDRQQPASGKRGARKRRSSRRSAGGSAGPGGATGGGIGGGDEPGSPAQGKRGKKSAGGGGGGGAGGGGGGGGGSSSGGGSPQSYEELQTQRVMANVRERQRTQSLNEAFAALRKIIPTLPSDKLSKIQTLKLAARYIDFLYQVLQSDELDSKMASCSYVAHERLSYAFPVWRMEGAWSMSASH
